Data as given in publication PMC11036802.
No constants are given. Whether binding was seen depends on the method and setting. In cells and extracts the contact can be indirect. Here binding means that the protein was enriched with, or labelled near, the bait; the list need not be complete. Where a sequence is shown, tags or fusion partners need not be part of it.

T1: PfEAF2::GFP (endogenous PfEAF2 tagged with GFP) (P. falciparum (endogenous in 3D7 parasites)) (UniProt C6KTC1)
T1 sequence: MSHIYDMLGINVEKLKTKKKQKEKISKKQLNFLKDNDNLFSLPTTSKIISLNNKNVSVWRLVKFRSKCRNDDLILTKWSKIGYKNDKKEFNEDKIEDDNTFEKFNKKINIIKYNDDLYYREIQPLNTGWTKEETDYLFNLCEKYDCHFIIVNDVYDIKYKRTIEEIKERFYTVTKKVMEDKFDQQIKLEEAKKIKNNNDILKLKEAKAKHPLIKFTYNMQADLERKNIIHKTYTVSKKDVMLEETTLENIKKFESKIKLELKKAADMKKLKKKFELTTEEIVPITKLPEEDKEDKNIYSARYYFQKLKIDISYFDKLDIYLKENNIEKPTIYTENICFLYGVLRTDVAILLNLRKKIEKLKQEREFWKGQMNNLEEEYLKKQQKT

T2: PfMYST::PTP (endogenous PfMYST with a C-terminal PTP tag) (P. falciparum (endogenous in 3D7 parasites)) (UniProt Q8III2)
T2 sequence: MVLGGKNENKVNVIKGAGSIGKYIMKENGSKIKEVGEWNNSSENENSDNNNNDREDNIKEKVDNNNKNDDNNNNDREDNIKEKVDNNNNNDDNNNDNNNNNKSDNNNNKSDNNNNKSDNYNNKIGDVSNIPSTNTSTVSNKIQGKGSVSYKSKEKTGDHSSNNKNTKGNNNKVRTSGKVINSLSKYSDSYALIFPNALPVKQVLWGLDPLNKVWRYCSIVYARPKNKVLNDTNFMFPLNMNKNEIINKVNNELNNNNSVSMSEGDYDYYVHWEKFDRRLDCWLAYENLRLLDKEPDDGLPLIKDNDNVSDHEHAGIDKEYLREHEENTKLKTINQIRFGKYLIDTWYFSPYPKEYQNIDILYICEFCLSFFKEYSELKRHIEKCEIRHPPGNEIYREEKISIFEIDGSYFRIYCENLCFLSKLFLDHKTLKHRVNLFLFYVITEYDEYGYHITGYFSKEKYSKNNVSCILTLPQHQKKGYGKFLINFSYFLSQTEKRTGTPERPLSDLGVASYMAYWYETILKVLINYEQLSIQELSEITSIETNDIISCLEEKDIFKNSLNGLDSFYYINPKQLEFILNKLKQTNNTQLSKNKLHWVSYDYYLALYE

B1: PfARP4 (protein, UniProt Q8ILM5 1-522)
chain: MKLKNDENVNFLCGGEDISSLVVDLGFYSCKIGHNQEDTPRIFLNSICGEREMNDEYENYMDGSLKNINYKELKYPLNLYNRNENIRIKPLFYKDDNKDDIKLNADVFEKILEYSIEGIEIPKVFECTDDIIMDPIKLGGLNLNFEEHPILLTEFNMHNHKIREQMTEILFEKYNIPALYFAKKAKLTSFSLGRSTSLVIDIGYNSLDINPVYEGYVLQKNSLEYNIGGQYFDKLIYEQLIKDNVNIIPYFVYCNGYDNMHTCFNDNINGSIHNNNHNNIGHNNNIDNINHHGNSNTYQENSLENSVNPFYNIHHSYKEECILDVIRYMKESVCRTRIINDDSKCEEKKNSIQNITNLNEQNNIHISNENNIKDACTKEEFFELPDGYKINIHKYKYDIAEHLFHSIPSLNNFKGLPQSIINCIISTDVDIRKELLQSIVITGGSSLFPGLIERLHNSLKEKECFTQSNKFKILNMTSLVEQKYSSWLGGSILASLGTFQQMWVSKKEYHESGHNIILDRCF
B2: SNF2L (PF3D7_1104200) (protein, UniProt Q8IIW0 1-1426)
chain: MFRNVRDYFKSSNDVNEEKKNDVGSVHMDENTENYDKESNGFVHRDFNNGINKEDKDYEELDLKKLNVSSNDITKEGNNMNENMMNRKLNSSVEDGNDNNHDKNVHRNIGNDTHVSYDDKRKSYLDNNEENSEQMNDNMKKRKLNEISYDNNEEDEFRNKKDDSMEMNDKEKGSTNMSTINDNNNNHNDDSNNHNDDSNNHNDDSNNHNDDSNNHNDDNNNHNEDNNNHNDDNNNHNDDNNYNSEEKPNYLQEKLEQLLAQTKRYTEKLAGQRLKMNAQMKSSKKGRCLLTEKEEDFMLLKDANEEDEAIILKQPMNINGTMKPYQLEGLNWLYQLYRFKINGILADEMGLGKTLQTISLLCYLRFNKNIKKKSIIICPRSTLDNWYEEIKKWCTPMKAFKYYGNKDQRKELNRNLLHSDFDVLLTTYEIVIKDKSALYDIDWFFLVIDEAHRIKNEKSVLSSSVRFLRSENRLLITGTPLHNNLKELWSLLNFLMPKIFDNSEEFDNLFNISKISTNDNKQSEIITQLHTILKPFMLRRLKVEVEQSLPPKREIYIFVGMSKLQKKLYSDILSKNIDVLNAMTGSKNQMLNILMQLRKCCNHPYLFDGIEEPPYIEGNHLIETSGKMSLLDKLLPRLKKENSRVLLFSQMTRLLDIIDDYCRWKNYPYLRIDGSTPGDERQVRINQFNEPNSKYFIFLLSTRAGGIGINLTTADIVILFDSDYNPQMDIQAMDRAHRIGQKKRVIVYRFVTQNSVEEKIVERAAKKLKLDSLIIQKGKLNLNSAKENNKQELHDILNFGAPEVYKTQDISSISDEDIDIILADAEKRTIEIEKKLKNLENIFDLTNISLDGGLNMYNDLEKEASEESTDEEDSSGSGEETILEGSGNNDIVEENGVKKKKKKKKNINKIRRTIKKFLKNNKKNMTFLDLGERKSKWKVMNTACGRTNKKKMVLHGWRAEARGGHDFQFFNVEKLDELEKIEDKWNNYMINQEKINVLIEAQNEEKDYEKIVTFNEFLDKHAKNIYQIITLINPSLFDEHKDTKEEELLKMGTHSDVNSNDKDYKRSSFMSTDYNMKTTYLNNINSNNNNNNNNINDNVGTSINTIDDQQYFKKKILSLFESGKKLQMIKFKDRNIKNCYTQVANFIKKNFPEKINNNDTNNNKSTTLKNKKLKKGKQTKNVNVEKDIASVDIEKIKLQKQELMKQGFAKWNKAEFNKLMSGLIIYGTNEVEYIYEKYFSNSKKSMEDIKAYLTVFFRKYDQIKGGVRLFDKIKRSDLQKKIIEEENDMITEFVEKQLSEGVDSIEKLQLPSNLRYDFMEKREVLNITEEVKTENEENVLSNEELAYYDRENKILLWLLYQQGVVQIKNIHILTPYYWPEAYNFFKYATTPFENVEYRCRLIVDAIAELYAKKENVPLNNKDKRRI
B3: ATP-dependent protease ClpY (PF3D7_0907400) (protein, UniProt Q8I377 1-922)
chain: MKNLDANKCIKLINGLKQKKNYPYFSLQCLKNISNEKEKIHDKLLTFIPNNSRKIINSGTKSNYDSRFDKLIQNNKNNKNYNNINYKVIDHNKSNEECNVKNNFSINNKNVHISDINVKQKDKGDDLVIHIKYEPDNNKNGKKNEGQQILYNYDEMNYGNEDKTKLYIMNNYDEVGTKCNYKEYVSYNMNPHEYGKREDVNINGNNINNINNINSMNNINNINSINSINNNNINNSYNSYNNCKYINNNNNNDYNNFSRHGEKQKKYTMFLKKDDISKNIDQKEHINNLNSINNLDNMNETCDDTTSCTHSKNTRSDKKTDASISGKDDIVRDSYSSDKKKENMENFAKVKITKENIININEIKEEDVKKVKKVMGHKKETNEYNIKDEKNDNIYDIKVDIKKEEKDNIYDIKVDIKNEELPKSTIASEVPNHNSNVLKNDNIGKKNYFSSGSMKSGNVLKEEIKSDDSKINFQMKNGKSSKKCLYPHEIVEYLNKYIIGQSEAKKVVANALRQRWRRIQVSDDMKKDIIPKNILMIGPTGVGKTEIARRISMFVDAPFIKVEATKFTEVGFHGKDVDQIIKDLVEIAVKRQKTKFEIEIREQAEETVENIILYSLLGNIKEEEKNIWRKYLKDGSLDDKVISIDIPNYINNNIFSNDSVENAVKEALSNHQNIKSVKIIHQNINKQSDKKTMTIREARQKLLQLEIDSSINQDTILKTAINSVEEEGIVFIDEIDKICSKSNSSYNGPDASAEGVQRDLLPLIEGCVINTKYGNINTNYILFIASGAFQRVKPNDMLNELQGRLPVHVTLSSLTIKDFIDILTKTHNNLLQQNIALLKTEGIDLKFTDDAIETIANAAHDMNFYVENIGVRRLHTIIEKIMEDINYDVYNYVNQSIVIDKDKVNKSLEGFIKQYDLKKYII
B4: karyopherin-α (PF3D7_0812400) (protein, UniProt Q8IAW0 1-545)
chain: MDRRIEARRKEFKKNCDDTRRKREDLVVQIRKQQRECQLESKRAMVMANIGFEENNTYNLNYAKGNQNDSTNDSIYNTSSNNSSNTLEMLKKIPTLAIGVRSNEYVTQLNSTRELRKLLSIEKGPPIQEVINSGVVPYIVEFLKYDDKTDLQFEAAWVITNIASGSQEQTKVVIDNNAVPHLVRLLSSEKEDVCEQAVWALGNIAGDSAECREYVLNQNSLPLLLKILRTSHKRTLIRNAAWTLSNLCRGKPAPKFEIVSKALPTLAALIYNDDEEILTDACWTLSYLSDGSNENINSVLDAGVAERVVELLSHCSFLVQTPALRTVGNIVTGDDLQTDVVVKLGAVQKLSCLLNSSKKSIKKEACWALSNITAGNISQIQAVIDNNVIPQLINILMKEDFEVRKEAAWAISNASSGGSELQIEYLVECGAIHSLSNLLDVEDANIISVTLEGLENILEMGENKKLRDNLPTNPYVHLFEECDSVHKIDALQDRKVDNICNKAWKILYKYFPFVINNELNNAQIPLNNVFANTEDAVLNKDFTFD
B5: PfEAF2 (protein, UniProt C6KTC1 1-385)
chain: T1 sequence

molecular target: T1, PfEAF2::GFP (endogenous PfEAF2 tagged with GFP) (P. falciparum (endogenous in 3D7 parasites)); test: affinity purification with mass spectrometry; single-step pulldown of PfEAF2::GFP with GFP-trap beads from lysates of 10^9 parasites; LC-MS/MS, same SAINT thresholds; three replicates

Binder	binding
B1	binds
B2	binds

molecular target: T2, PfMYST::PTP (endogenous PfMYST with a C-terminal PTP tag) (P. falciparum (endogenous in 3D7 parasites)); test: affinity purification with mass spectrometry; tandem affinity purification (IgG agarose beads, TEV protease, anti-protein C beads) of PfMYST::PTP from nuclear extracts of 10^9 asexual blood-stage parasites in PA150 buffer (150 mM KCl, 20 mM Tris-HCl pH 7.7, 3 mM MgCl2, 0.5 mM DTT, 0.1% Tween 20), 4°C; WT 3D7 as control; LC-MS/MS, SAINT probability above 95%, FDR below 1%; three replicates

Binder	binding
B3	binds
B4	binds
B5	binds
B1	binds
